Results: the supplement of paper PMC4604168 (melanoma cell lines)
Some of the results follow. Many values rest on one well or one pass, so single values are uncertain.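 The apoptosis fraction was the count of cleaved-PARP antibody-stained nuclei relative to all DNA-stained nuclei, imaged in 1,536-well plates. Screening doses were set so most cells survived, and baseline and induced cleaved-PARP levels vary greatly across cell lines.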

Legend:
Test in all cases: cleaved PARP positive nuclei fraction relative to DMSO control; melanoma cells; higher = more apoptosis
Conditions in all cases: library dose: low library concentration; 72 h
WM115 = tested on: WM115
WM1716 = tested on: WM1716
WM1745 = tested on: WM1745
WM3526 = tested on: WM3526
WM3619 = tested on: WM3619
WM451Lu = tested on: WM451Lu

For `CCN(CC)CCNC(=O)c1c(C)[nH]c(/C=C2\C(=O)Nc3ccc(F)cc32)c1C` [sunitinib] + CN1CCN(c2ccc3nc(-c4c(N)c5c(F)cccc5[nH]c4=O)[nH]c3c2)CC1 [Dovitinib] (first compound 0.4 µM, partner dose 0.1 µM), the “cleaved PARP positive nuclei fraction” value (WM115) was 34.3%, the “cleaved PARP positive nuclei fraction” value (WM1716) was 93% and the “cleaved PARP positive nuclei fraction” value (WM1745) was 129%. For the same compound, the “cleaved PARP positive nuclei fraction” value (WM3526) was 105%, the “cleaved PARP positive nuclei fraction” value (WM3619) was 111% and the “cleaved PARP positive nuclei fraction” value (WM451Lu) was 63.4%.
With `CC1(C)CCC(c2ccc(Cl)cc2)=C(CN2CCN(c3ccc(C(=O)NS(=O)(=O)c4ccc(N[C@H](CCN5CCOCC5)CSc5ccccc5)c(S(=O)(=O)C(F)(F)F)c4)cc3)CC2)C1` + O=C1NC(=O)/C(=C/c2ccc(-c3ccc(F)cc3O)o2)S1 [AS252424] (first compound 0.4 µM, partner dose 1 µM) the “cleaved PARP positive nuclei fraction” value (WM115) was 314%, the “cleaved PARP positive nuclei fraction” value (WM1716) was 163% and the “cleaved PARP positive nuclei fraction” value (WM1745) was 2070%. For the same compound, the “cleaved PARP positive nuclei fraction” value (WM3526) was 85.4%, the “cleaved PARP positive nuclei fraction” value (WM3619) was 142% and the “cleaved PARP positive nuclei fraction” value (WM451Lu) was 285%.
In the case of `NC(=O)c1ccc(N(C(N)=O)c2c(F)cccc2F)nc1-c1ccc(F)cc1F` + CS(=O)(=O)c1ccc(C(=O)Nc2ccc(Cl)c(-c3ccccn3)c2)c(Cl)c1 [vismodegib] (first compound 0.4 µM, partner dose 1 µM), the “cleaved PARP positive nuclei fraction” value (WM115) is reported as 151%, the “cleaved PARP positive nuclei fraction” value (WM1716) is reported as 46.1% and the “cleaved PARP positive nuclei fraction” value (WM1745) is reported as 81%. For the same compound, the “cleaved PARP positive nuclei fraction” value (WM3526) was 34.3%, the “cleaved PARP positive nuclei fraction” value (WM3619) was 93% and the “cleaved PARP positive nuclei fraction” value (WM451Lu) was 155%.
In the case of `NC1(c2ccc(-c3nc4ccn5c(=O)[nH]nc5c4cc3-c3ccccc3)cc2)CCC1` + COC(=O)c1sccc1S(=O)(=O)Nc1ccc(Nc2ccccc2)cc1OC [GSK0660] (first compound 0.4 µM, partner dose 1 µM), the “cleaved PARP positive nuclei fraction” value (WM115) is reported as 238%, the “cleaved PARP positive nuclei fraction” value (WM1716) is reported as 162% and the “cleaved PARP positive nuclei fraction” value (WM1745) is reported as 90.4%. For the same compound, the “cleaved PARP positive nuclei fraction” value (WM3526) was 272%, the “cleaved PARP positive nuclei fraction” value (WM3619) was 84.1% and the “cleaved PARP positive nuclei fraction” value (WM451Lu) was 129%.
In the case of `NC(=O)c1ccc(N(C(N)=O)c2c(F)cccc2F)nc1-c1ccc(F)cc1F` + O=C(Nc1ccccc1)c1cc([N+](=O)[O-])ccc1Cl [GW9662] (first compound 0.4 µM, partner dose 2 µM), the “cleaved PARP positive nuclei fraction” value (WM115) is reported as 160%, the “cleaved PARP positive nuclei fraction” value (WM1716) is reported as 47.6% and the “cleaved PARP positive nuclei fraction” value (WM1745) is reported as 113%. The “cleaved PARP positive nuclei fraction” value (WM3526) was 203%, the “cleaved PARP positive nuclei fraction” value (WM3619) was 128% and the “cleaved PARP positive nuclei fraction” value (WM451Lu) was 156%.
With `CN(c1ncccc1CNc1nc(Nc2ccc3c(c2)CC(=O)N3)ncc1C(F)(F)F)S(C)(=O)=O` + CO[C@H]1C[C@@H]2CC[C@@H](C)[C@@](O)(O2)C(=O)C(=O)N2CCCC[C@H]2C(=O)O[C@H]([C@H](C)C[C@@H]2CC[C@@H](OCCO)[C@H](OC)C2)CC(=O)[C@H](C)/C=C(\C)[C@@H](O)[C@@H](OC)C(=O)[C@H](C)C[C@H](C)/C=C/C=C/C=C/1C [everolimus] (first compound 0.08 µM, partner dose 0.02 µM) the “cleaved PARP positive nuclei fraction” value (WM115) was 136%, the “cleaved PARP positive nuclei fraction” value (WM1716) was 62.8% and the “cleaved PARP positive nuclei fraction” value (WM1745) was 112%. For the same compound, the “cleaved PARP positive nuclei fraction” value (WM3526) was 79.2%, the “cleaved PARP positive nuclei fraction” value (WM3619) was 142% and the “cleaved PARP positive nuclei fraction” value (WM451Lu) was 182%.
`CCCCCCCCc1ccc(CCC(N)(CO)CO)cc1` [fingolimod] + NC1(c2ccc(-c3nc4ccn5c(=O)[nH]nc5c4cc3-c3ccccc3)cc2)CCC1 [MK2206] (first compound 2 µM, partner dose 0.4 µM) was tested, and the “cleaved PARP positive nuclei fraction” value (WM115) was 188%, the “cleaved PARP positive nuclei fraction” value (WM1716) was 190% and the “cleaved PARP positive nuclei fraction” value (WM1745) was 116%. For the same compound, the “cleaved PARP positive nuclei fraction” value (WM3526) was 31%, the “cleaved PARP positive nuclei fraction” value (WM3619) was 106% and the “cleaved PARP positive nuclei fraction” value (WM451Lu) was 29.1%.
`C[C@]1(O)C[C@@H](c2nc(-c3ccc4ccc(-c5ccccc5)nc4c3)c3c(N)nccn32)C1` + CC(C)CCN1c2nc(Nc3cc(F)c(O)c(F)c3)ncc2N(C)C(=O)C1C [BID1870] (first compound 0.4 µM, partner dose 0.2 µM) was tested, and the “cleaved PARP positive nuclei fraction” value (WM115) was 460%, the “cleaved PARP positive nuclei fraction” value (WM1716) was 144% and the “cleaved PARP positive nuclei fraction” value (WM1745) was 118%. The “cleaved PARP positive nuclei fraction” value (WM3526) was 255%, the “cleaved PARP positive nuclei fraction” value (WM3619) was 86.5% and the “cleaved PARP positive nuclei fraction” value (WM451Lu) was 43.2%.
For `Cn1sc(=O)n(Cc2ccccc2)c1=O` + C[C@@H](Oc1cc(-c2cnn(C3CCNCC3)c2)cnc1N)c1c(Cl)ccc(F)c1Cl [Crizotinib] (first compound 0.4 µM, partner dose 0.2 µM), the “cleaved PARP positive nuclei fraction” value (WM115) was 76.4%, the “cleaved PARP positive nuclei fraction” value (WM1716) was 72.1% and the “cleaved PARP positive nuclei fraction” value (WM1745) was 98.4%. For the same compound, the “cleaved PARP positive nuclei fraction” value (WM3526) was 46.4%, the “cleaved PARP positive nuclei fraction” value (WM3619) was 91.9% and the “cleaved PARP positive nuclei fraction” value (WM451Lu) was 76.8%.
`CCN(CC)CCNC(=O)c1c(C)[nH]c(/C=C2\C(=O)Nc3ccc(F)cc32)c1C` [sunitinib] + COc1ccc(Cl)c(Nc2nc3ccccc3nc2NS(=O)(=O)c2cccc(NC(=O)C(C)(C)N)c2)c1 [XL147] (first compound 0.4 µM, partner dose 0.8 µM) was tested, and the “cleaved PARP positive nuclei fraction” value (WM115) was 32.9%, the “cleaved PARP positive nuclei fraction” value (WM1716) was 37.6% and the “cleaved PARP positive nuclei fraction” value (WM1745) was 126%. For the same compound, the “cleaved PARP positive nuclei fraction” value (WM3526) was 198%, the “cleaved PARP positive nuclei fraction” value (WM3619) was 87.8% and the “cleaved PARP positive nuclei fraction” value (WM451Lu) was 183%.
With `CS(=O)(=O)c1ccc(C(=O)Nc2ccc(Cl)c(-c3ccccn3)c2)c(Cl)c1` [vismodegib] + CO[C@@H]1[C@H](N(C)C(=O)c2ccccc2)C[C@H]2O[C@]1(C)n1c3ccccc3c3c4c(c5c6ccccc6n2c5c31)C(=O)NC4 [Midostaurin] (first compound 1 µM, partner dose 0.08 µM) the “cleaved PARP positive nuclei fraction” value (WM115) was 126%, the “cleaved PARP positive nuclei fraction” value (WM1716) was 85.2% and the “cleaved PARP positive nuclei fraction” value (WM1745) was 103%. The “cleaved PARP positive nuclei fraction” value (WM3526) was 52%, the “cleaved PARP positive nuclei fraction” value (WM3619) was 88.3% and the “cleaved PARP positive nuclei fraction” value (WM451Lu) was 86.3%.
In the case of `CS(=O)(=O)c1ccc(C(=O)Nc2ccc(Cl)c(-c3ccccn3)c2)c(Cl)c1` [vismodegib] + COc1ccc(COc2ccc(Cc3cnc(N)nc3N)cc2OC)cc1 [GW2580] (first compound 1 µM, partner dose 1 µM), the “cleaved PARP positive nuclei fraction” value (WM115) is reported as 66.5%, the “cleaved PARP positive nuclei fraction” value (WM1716) is reported as 58.2% and the “cleaved PARP positive nuclei fraction” value (WM1745) is reported as 94.8%. The “cleaved PARP positive nuclei fraction” value (WM3526) was 297%, the “cleaved PARP positive nuclei fraction” value (WM3619) was 70.4% and the “cleaved PARP positive nuclei fraction” value (WM451Lu) was 73%.
